# According to PubChem BioAssay AID445 (National Center for Advancing Translational Sciences (NCATS), 2006):
# This is one part of the list. Shown are side measurements of this screen, not its main read-out; they come without a call. Compounds called inactive in the main read-out are mostly missing here. The note in brackets gives the kind of curve behind each potency; many fits are weak.
# Experiment: IkB Signaling
# Details: ABC-DLBCL IkBa-CBG/CBR dual luciferase ratio (green luciferase fused to IkBa over red control in OCI-Ly3 lymphoma cells), 4 h
# Outline: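 Luminescence ratio of IκBα-fused green versus native red beetle luciferase in OCI-Ly3 cells, 4 h post-doxycycline with compound; red signal alone, scaled from basal (0%) to zero light (-100%), flagged nonspecific or cytotoxic effects.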
# [1] = measured here: control luc red channel unless noted
structure (smiles),measurement,setting,value
Fc1cccc(CN2CCc3nc(Nc4ccc5c(c4)OCCO5)ncc3C2)c1F,AC50,[1],"39.8 µM [falling, partial curve]"
COc1ccc(-c2noc(N3CCC(C(=O)N4CCN(c5cccc(OC)c5)CC4)CC3)n2)cc1,AC50,[1],"15.8 µM [falling, partial curve]"
COC(=O)c1[nH]c2ccc(C)cc2c1NC(=O)CN1CCN(Cc2ccccc2)CC1,AC50,[1],"12.6 µM [falling, partial curve]"
COc1ccc(NC(=O)Cn2cc(C(=O)c3ccc(C)c(C)c3)c(=O)c3cc(OC)ccc32)cc1,AC50,[1],"39.8 µM [falling, single point]"
Cc1ccc(-n2ncc(C(=O)N3CCN(c4ccccc4F)CC3)c2C2CCN(C(=O)OC(C)(C)C)CC2)cc1C,AC50,[1],"25.1 µM [falling, single point]"
CCOc1ccc(CNC(=O)c2ccc(NC(=O)N3CCCCc4ccccc43)cc2)cc1,AC50,[1],"10 µM [falling, partial curve]"
Cc1c(NC(=O)Cc2ccc(Cl)cc2)cccc1-c1nc2cccnc2s1,AC50,[1],"12.6 µM [falling, partial curve]"
CCOC(=O)c1c(C)[nH]c(C)c1S(=O)(=O)NCC(=O)Nc1cccc(Cl)c1,AC50,[1],"31.6 µM [falling, single point]"
Cc1cccc(CNC(=O)Cn2nc(C)c3nn(-c4ccc(Cl)cc4)c(C)c3c2=O)c1,AC50,[1],"0.0398 µM [falling, full curve]"
Cc1c(CNC2CCCCCC2)c(C(=O)O)c(C)n1Cc1cccc(Cl)c1,AC50,[1],"31.6 µM [falling, partial curve]"
Cc1ccccc1Nc1c(-c2c[nH]c3ccccc23)nc2ccc(Cl)cn12,AC50,[1],"0.0631 µM [falling, full curve]"
O=C(CSc1nc(Nc2ccccc2)c2ccccc2n1)c1ccc(Cl)cc1,AC50,[1],"1 µM [rising, full curve]"
Cc1ccc(Cl)c(Nc2ccccc2C(=O)O)c1Cl,AC50,[1],"39.8 µM [rising, single point] [measured here: IkB-luc green channel]"
Cc1cc(C)cc(NC(=O)NCc2c(-n3cccc3)sc3c2CCCC3)c1,AC50,[1],"3.16 µM [rising, partial curve]"
CCOC(=O)c1ccc(N2C(=O)c3n[nH]c(-c4ccco4)c3C2c2ccccc2OC)cc1 (stereo not drawn),AC50,[1],"20 µM [falling, single point]"
COc1ccc(-c2cc(C(=O)NCc3cccnc3)no2)cc1OC,AC50,[1],"3.98 µM [falling, partial curve]"
Cc1ccc(NC(=O)Cn2c(=O)n(Cc3ccccc3)c(=O)c3c(C)c(C(=O)N(C)C)sc32)c(C)c1,AC50,[1],"0.398 µM [rising, partial curve, poor fit]"
CCOc1ccc2c(c1)c(=O)c(C(=O)c1ccc(CC)cc1)cn2CC(=O)Nc1ccc2c(c1)OCCO2,AC50,[1],"5.01 µM [falling, partial curve]"
COc1ccc(Cl)cc1NC(=O)Cn1c(=O)n2nc(-c3ccccc3)nc2c2ccccc21,AC50,[1],"25.1 µM [falling, single point]"
COc1ccc(C)c2sc(N(Cc3cccnc3)C(=O)c3cccs3)nc12,AC50,[1],"25.1 µM [falling, partial curve]"
COC(=O)c1c(C)oc2ccc(N(C(=O)c3ccncc3)S(=O)(=O)c3ccc(Br)cc3)cc12,AC50,[1],"25.1 µM [falling, single point]"
O=C(Nc1cccc(F)c1)c1cnc2sc(N3CCCC3)nn2c1=O,AC50,[1],"0.158 µM [falling, full curve]"
CC(C)(C)OC(=O)N1CCC(c2c(C(=O)N3CCN(c4cccc(Cl)c4)CC3)cnn2-c2cccc(Cl)c2)CC1,AC50,[1],"7.94 µM [rising, single point]"
CCCCCNC(=O)c1ccc2c(=O)n(CC3CCCO3)c(=O)[nH]c2c1 (stereo not drawn),AC50,[1],"10 µM [falling, partial curve]"
CCOC(=O)C1CCN(C(=O)Cn2nc(C)n3c(cc4c(OC)cccc43)c2=O)CC1,AC50,[1],"3.16 µM [rising, partial curve]"
CCC1CN(C(=O)NCc2ccc(F)cc2)c2cc(C)ccc2O1 (stereo not drawn),AC50,[1],"15.8 µM [falling, partial curve]"
CC(=O)COc1ccc2c3c(c(=O)oc2c1C)CCCCC3,AC50,[1],"0.398 µM [rising, partial curve]"
CCc1cccc2c3c([nH]c12)[C@](CC)(CC(=O)O)OCC3,AC50,[1],"15.8 µM [rising, partial curve] [measured here: IkB-luc green channel]"
O=C(CSc1ccnc(=O)[nH]1)NCc1ccc(F)cc1,AC50,[1],"20 µM [rising, partial curve]"
CCCCn1cc2c(c1-c1ccc(Br)cc1)c(=O)n(C)c(=O)n2C,AC50,[1],"20 µM [falling, partial curve]"
Cc1cccc(C(=O)NCCc2nc3ccccc3n2CCC(C)C)c1,AC50,[1],"15.8 µM [falling, partial curve]"
CCc1ccc(-n2nc(C)c3c(C)cc(=O)n(CC(=O)Nc4cc(Cl)ccc4OC)c32)cc1,AC50,[1],"25.1 µM [falling, partial curve]"
Cc1nc2nc(NCc3ccccc3Cl)[nH]n2c(=O)c1Cc1ccccc1,AC50,[1],"39.8 µM [falling, single point]"
CCCSC1=NC2(CCN(C(=O)NC3CCCCC3)CC2)N=C1c1ccc(C)cc1,AC50,[1],"3.98 µM [rising, single point]"
Cc1ccc(C)c(OCc2nc3ccccc3n2C)c1,AC50,[1],"2 µM [rising, partial curve]"
Cc1ccccc1NC(=O)CSc1nc2c(oc3ccccc32)c(=O)n1Cc1ccco1,AC50,[1],"20 µM [rising, partial curve]"
Cc1c(C(=O)OCc2ccccc2)[nH]c2c1C(=O)CC(c1ccco1)C2 (stereo not drawn),AC50,measured here: IkB-luc green channel,"0.794 µM [rising, full curve]"
same,AC50,measured here: control luc red channel,"0.251 µM [rising, full curve]"
COc1ccc(OC)c(CCNC(=O)c2ccc3c(c2)N(Cc2ccccc2)CCS3)c1,AC50,[1],"25.1 µM [falling, partial curve]"
COC(=O)c1sccc1S(=O)(=O)N1CCN(c2cccc(C)c2)C(C)C1 (stereo not drawn),AC50,[1],"15.8 µM [falling, partial curve]"
CCOC(=O)c1cccc(NC(=O)C2COc3ccc(OC)cc3C2)c1 (stereo not drawn),AC50,[1],"31.6 µM [falling, partial curve]"
CCCCc1ccc(NC(=O)Cn2cnc3c(oc4ccccc43)c2=O)cc1,AC50,[1],"0.01 µM [rising, full curve, poor fit]"
COc1ccc(C)cc1NC(=O)CSc1nc(=O)n(Cc2ccco2)c2c1CCC2,AC50,[1],"7.94 µM [falling, partial curve]"
CCN(CC)CC(=O)Nc1c(Br)ccc2c1OCO2,AC50,[1],"3.98 µM [falling, partial curve]"
Cc1ccc(-n2ncc3c(NCCCN(C)C)ncnc32)cc1Cl,AC50,[1],"20 µM [rising, partial curve]"
COc1ccc(Nc2ncc3c(n2)CCN(Cc2sccc2C)C3)c(OC)c1,AC50,[1],"31.6 µM [falling, single point]"
COc1ccc(OC)c(-c2cc(C(=O)Nc3c(C)nn(Cc4ccc(C)cc4)c3C)no2)c1,AC50,[1],"15.8 µM [falling, single point]"
COc1ccc(C2Sc3nncn3N2Cc2ccc(C#N)cc2)cc1 (stereo not drawn),AC50,[1],"10 µM [falling, partial curve]"
COc1ccc(C(CNC(=O)c2oc3cc(Br)ccc3c2C)N2CCCCC2)cc1 (stereo not drawn),AC50,[1],"39.8 µM [falling, single point]"
Cc1ccc(NC(=O)c2c(C)oc3ccc(O)c(CN4CCN(Cc5ccccc5)CC4)c23)cc1,AC50,[1],"15.8 µM [falling, partial curve]"
CCn1nnc(NC(=O)c2cccc(-c3cc4ccccc4oc3=O)c2)n1,AC50,[1],"15.8 µM [falling, partial curve]"
Cc1ccc(CN2CCC(CNC(=O)c3cnn(-c4ccc(C)cc4)c3C3CCN(C(=O)OC(C)(C)C)CC3)CC2)cc1,AC50,[1],"7.94 µM [falling, full curve]"
Cc1ccc(S(=O)(=O)N(CC(=O)Nc2cccnc2)c2cc(Cl)ccc2C)cc1,AC50,[1],"20 µM [falling, partial curve]"
COc1ccc(NC(=O)CC2C(=O)N(c3ccccc3)C(=O)N2CCc2sccc2C)cc1 (stereo not drawn),AC50,[1],"39.8 µM [falling, single point]"
Brc1ccc(-c2nn3c(-c4ccccn4)nnc3s2)o1,AC50,[1],"15.8 µM [falling, partial curve]"
CCN(CC)S(=O)(=O)c1cc(-c2ccc(=O)n(C(C)C(=O)Nc3cccc(C#N)c3)n2)ccc1C (stereo not drawn),AC50,[1],"31.6 µM [falling, single point]"
Cc1cc(C)cc(N(CC(=O)Nc2c(C)cc(C)cc2C)S(=O)(=O)c2c(C)nn(C)c2C)c1,AC50,[1],"25.1 µM [falling, partial curve]"
COc1ccc(C(=O)Nc2nc3c(s2)Cc2c(Br)ccc(OC)c2-3)cc1OC,AC50,[1],"6.31 µM [falling, partial curve]"
COc1ccc(-c2noc(CSc3nnc(Cc4ccccc4)n3-c3ccc(F)cc3)n2)cc1,AC50,[1],"15.8 µM [falling, partial curve]"
COc1ccc(CNC(=O)CCCn2ccc3cc(S(=O)(=O)N4CCCC4)ccc32)cc1,AC50,[1],"25.1 µM [falling, single point]"
CC(C)(C)n1nc2c(c1NC(=O)COc1ccc(Cl)cc1)CSC2,AC50,[1],"15.8 µM [falling, partial curve]"
COc1ccc(-c2nnn3c2nc(NCCc2ccc(OC)c(OC)c2)c2ccccc23)cc1,AC50,[1],"0.631 µM [falling, full curve]"
Cc1ccccc1NC(=O)c1c(NC(=O)c2ccccc2F)sc2c1CCC(C)C2 (stereo not drawn),AC50,[1],"3.98 µM [falling, full curve]"

# Fetched one by one from the list above (3):
structure (smiles),measurement,setting,value
Cc1cc(C)cc(N(CC(=O)Nc2c(C)cc(C)cc2C)S(=O)(=O)c2c(C)nn(C)c2C)c1,AC50,[1],"25.1 µM [falling, partial curve]"
COC(=O)c1c(C)oc2ccc(N(C(=O)c3ccncc3)S(=O)(=O)c3ccc(Br)cc3)cc12,AC50,[1],"25.1 µM [falling, single point]"
COC(=O)c1[nH]c2ccc(C)cc2c1NC(=O)CN1CCN(Cc2ccccc2)CC1,AC50,[1],"12.6 µM [falling, partial curve]"
